Experimental data reported in the supplement of paper PMC3334620.
Over roughly 33,000 sequences, “E-score (-0.5 to 0.5)” has its median near -0.0034; the highest 2% begin near 0.25. Some of the results follow.

What follows are sequences tested against T1, Yap3 (UniProt P38749) (assay: PBM E-score (8-mer binding enrichment) (E-score (-0.5 to 0.5)); higher = stronger / more preferred TF binding). Conditions: protein concentration: 100 nM; construct: GST-full length.
T1 sequence: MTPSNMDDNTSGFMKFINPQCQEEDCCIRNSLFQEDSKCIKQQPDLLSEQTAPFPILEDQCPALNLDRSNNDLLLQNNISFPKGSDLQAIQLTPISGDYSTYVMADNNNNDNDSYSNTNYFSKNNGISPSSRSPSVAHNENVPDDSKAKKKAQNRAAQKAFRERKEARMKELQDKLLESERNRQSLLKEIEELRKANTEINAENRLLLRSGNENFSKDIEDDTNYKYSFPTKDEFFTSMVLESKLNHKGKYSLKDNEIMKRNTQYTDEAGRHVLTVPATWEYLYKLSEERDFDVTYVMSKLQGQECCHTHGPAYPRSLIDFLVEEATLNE
Protocol: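 Universal 'all 10-mer' protein binding microarrays (Agilent AMADID 015681) probed with GST-tagged S. cerevisiae TFs (full-length or DBD) made by in vitro transcription/translation (PURExpress), about 100-200 nM. Bound TF was detected with fluorescent anti-GST. Each ungapped 8-mer (which stands for itself and its reverse complement) is scored by the PBM enrichment score (E-score), a modified Wilcoxon-Mann-Whitney statistic from -0.5 to +0.5, computed with the Universal PBM Analysis Suite. Scale: above 0.35 generally sequence-specific binding.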

Sequence	PBM E-score
ACGGGCAA	-0.133
CAGACCCG	-0.095
ATCAGTAC	0.0555
CTACTATC	0.178
AAGCCAAC	0.0844
AACCAATG	0.131
AATTATAG	0.234
GCGTATGA	-0.071
CCAGTCCC	-0.172
ATTTTCAC	0.174
TGCCTCCA	-0.172
CAGCGTGC	-0.131
CTAGCGAG	-0.183
AGGTAAGA	0.147
ATCAACAT	0.221
CACCTGAG	-0.00852
CGAATATC	0.154
AGGATAAG	-0.0931
ACAGGAAT	-0.0331
GCGGCTAA	-0.0345
GACCAGGA	-0.0158
TGGGTGAA	0.251
ATTCAATA	0.225
CGATCGAC	0.14
TTCATCAA	0.0528

Sequence	PBM E-score
TATTCTAA	0.154
TAGCATGA	0.149
GAGGTCTA	-0.165
ACCGTGTG	-0.088
ACTGTCAG	0.0443
GTTAGGCA	-0.14
AATTACTC	0.241
CGCAATCC	0.161
AGCTAGAG	0.036
CGGCTTTC	-0.0635
ACCCCTCT	-0.251
ACTCCTTC	-0.0777
GGGGTTGA	-0.0643
GATAAACC	0.126
AACTACCG	-0.0363
GACCTCTC	-0.0778
CTCGGAAG	0.00874
CTAGAGAC	-0.208
GATGCTGC	-0.136
ACGGATTG	0.104
AAAGGGTG	0.028
CCTACCGA	-0.0814
CGGGTCGA	-0.212
ACATGTGC	0.0335
CGTTGGCA	0.0701

Sequence	PBM E-score
AACATCGT	-0.0393
AAAGGTAG	-0.102
CTGCCCCC	-0.207
CTGACGCC	-0.164
ACGCGGTC	-0.018
CACTGAAC	0.0759
ATCCCTAG	-0.0347
ACCACCTA	-0.167
CGGAGTCC	-0.0561
CGCGGCTA	0.0264
AAGGGCAC	-0.186
GCATTGCA	0.0176
CTCTAAAG	-0.0169
AGCTCATG	-0.152
ACTCATAA	0.0634
ACGCAACC	0.0284
CCAAATAG	-0.00601
ATACTGAC	0.149
TCGAACGA	0.115
GAGGTATC	-0.0977
CGGTGTAC	-0.121
CATAAATA	0.197
CTGAAAAC	0.0198
CCACTAGA	-0.17
AGTATATA	0.364

Sequence	PBM E-score
GCGATGGA	-0.0487
AGGACTCC	-0.266
AGCTTGCC	-0.0742
AACGAGCC	0.013
CGCCCCAC	-0.201
CCTCTTCG	-0.0442
ATGCCCTA	-0.14
CTTGCCTC	-0.0239
CCCACGAG	-0.163
AGACTGTC	-0.163
CCGGCTAC	0.0168
ACGTGGAG	0.0683
TAACCTCA	-0.0223
CATCGGAC	-0.163
AGCTATGA	-0.0409
AAATCTGA	0.0576
GCGGTGAA	0.0471
AGCGTTCA	-0.163
GGCAAACC	-0.182
CGTCCGGA	-0.133
ACGTCTAT	-0.0776
CCTGGGCA	-0.359
ATTAAGCG	0.144
CACGTATA	0.0718
CATACCTC	0.151

Sequence	PBM E-score
CCCCATGA	-0.043
GGACTCCA	-0.131
AGAAAACG	0.114
ACCATCCA	-0.12
CCATCAAG	-0.0995
GCATGTAA	0.0568
AGCCTGAC	-0.106
ACCTCTCT	-0.175
ATCAGGCA	-0.0855
GCACGATA	0.134
AAAGCGTA	-0.0563
ACTAAAGC	0.144
GATACCCA	0.0704
AACGCTCC	-0.0861
GACCCACC	-0.217
AAAGTGAT	0.165
CAATCTGG	-0.0667
TAGATCAA	0.0945
CACATTAA	0.047
ACTCATCC	0.157
GCTACGAA	0.00172
ATGATTGG	0.0277
AAACAGCC	-0.0735
AGTAACGA	-0.0656
AGGAACTC	0.0738

Sequence	PBM E-score
GACACATA	0.126
AAGCGACA	0.154
CGCTTGAG	-0.0842
AAGGTAGT	0.0783
AACGCAGC	0.0334
AGATAAAA	0.249
AATTTCGT	0.13
CACCGTCC	-0.0438
AATCGCCG	0.0414
GCCGGTGA	-0.0951
CGATATCA	0.101
CCGACACA	-0.0479
AGGCCGCA	-0.0653
ATTATATA	0.3
TCGCTAAA	0.0125
AGGTCCAT	0.0397
CACTCACA	0.078
ACTGTTCA	-0.0919
CCACTAAG	0.0472
AGTGGCAT	0.0233
AGTAGCCC	-0.183
CGCAGTTC	-0.0498
GCGAAGCA	-0.186
GGTACTAC	0.135
CTTCGGGC	-0.204

Sequence	PBM E-score
CCCGATTA	0.142
CACCGATG	-0.153
AGGACTGC	-0.318
AGACTCAG	-0.044
AGATTTTA	0.0115
GGAGGACC	-0.234
TATTGGGA	0.0997
CTGCACAG	-0.0469
ACGACGCA	0.00709
AATCCCCA	-0.0814
CACACCAG	0.00953
AGGGATGG	-0.16
GGGAAGAC	-0.159
TAGCTAAA	-0.0332
AGTTTTGC	0.168
CGGACTAA	0.0673
ACCTTTGA	-0.0839
CAGCCGCA	-0.0641
ATCCTCAA	-0.0462
ACGTCATG	0.186
ATTACGCG	0.311
ACCAGCGA	-0.152
